Measured values taken from article PMC6155157.
No constants are given. Whether binding was seen depends on the method and setting. Binding seen in cells or lysates may run through a third protein. Some binding calls cover weakened binding; strength is not graded here.

Sequences of proteins named here, by UniProt entry; tags and fusion partners are left off.
UniProt Q96EB6: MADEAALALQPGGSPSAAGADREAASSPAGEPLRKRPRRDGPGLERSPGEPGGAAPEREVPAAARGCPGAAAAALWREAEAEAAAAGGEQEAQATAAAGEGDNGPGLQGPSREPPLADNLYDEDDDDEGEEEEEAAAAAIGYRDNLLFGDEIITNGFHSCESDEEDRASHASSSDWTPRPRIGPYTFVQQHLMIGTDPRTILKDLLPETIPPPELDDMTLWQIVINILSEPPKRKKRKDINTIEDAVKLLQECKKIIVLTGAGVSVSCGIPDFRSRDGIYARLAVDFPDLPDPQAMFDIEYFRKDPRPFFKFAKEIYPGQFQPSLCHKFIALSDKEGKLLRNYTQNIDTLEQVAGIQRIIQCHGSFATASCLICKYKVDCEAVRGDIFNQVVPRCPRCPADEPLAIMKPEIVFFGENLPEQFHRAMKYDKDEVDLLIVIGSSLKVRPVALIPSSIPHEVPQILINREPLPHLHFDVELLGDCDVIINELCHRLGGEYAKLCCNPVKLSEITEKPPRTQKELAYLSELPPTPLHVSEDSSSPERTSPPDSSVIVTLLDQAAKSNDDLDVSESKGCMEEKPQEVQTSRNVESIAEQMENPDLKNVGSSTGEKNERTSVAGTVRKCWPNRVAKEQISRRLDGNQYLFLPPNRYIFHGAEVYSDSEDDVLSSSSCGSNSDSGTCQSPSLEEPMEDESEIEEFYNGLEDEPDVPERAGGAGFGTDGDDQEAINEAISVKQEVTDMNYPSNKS
UniProt P05412: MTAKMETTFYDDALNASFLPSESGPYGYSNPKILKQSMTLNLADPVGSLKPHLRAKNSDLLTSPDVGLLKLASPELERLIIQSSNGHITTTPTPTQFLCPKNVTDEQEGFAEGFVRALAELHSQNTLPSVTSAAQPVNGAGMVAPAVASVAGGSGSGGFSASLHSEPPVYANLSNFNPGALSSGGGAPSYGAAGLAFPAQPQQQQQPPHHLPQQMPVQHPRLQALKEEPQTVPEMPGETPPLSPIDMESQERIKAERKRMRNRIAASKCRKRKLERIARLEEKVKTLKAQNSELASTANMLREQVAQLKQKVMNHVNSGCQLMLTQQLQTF

Molecular target: Sirtuin 1 (SIRT1) (human (endogenous in AGS)) (UniProt Q96EB6)
Experiment: co-IP; AGS cells lysed with NP40 lysis buffer; endogenous proteins precipitated with anti-c-JUN or anti-SIRT1 antibody (IgG as control) and protein G PLUS-Agarose beads; western blot for the other protein

- binding: binds
Substance: transcription factor c-JUN (from UniProt P05412 1-331)
